From the supplement of paper PMC10849652
The other results are listed elsewhere or left out.

The chains behind the UniProt entries cited, without tags or fusion partners. Where a name states a change or a piece, a line headed by the entry shows the natural chain unless it says otherwise.
UniProt P30041: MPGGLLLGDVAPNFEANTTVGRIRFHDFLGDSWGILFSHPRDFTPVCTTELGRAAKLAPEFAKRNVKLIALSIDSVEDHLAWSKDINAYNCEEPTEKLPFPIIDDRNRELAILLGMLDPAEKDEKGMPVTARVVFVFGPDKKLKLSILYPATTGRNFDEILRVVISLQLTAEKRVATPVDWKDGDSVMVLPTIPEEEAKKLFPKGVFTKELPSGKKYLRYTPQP
UniProt Q96BP3: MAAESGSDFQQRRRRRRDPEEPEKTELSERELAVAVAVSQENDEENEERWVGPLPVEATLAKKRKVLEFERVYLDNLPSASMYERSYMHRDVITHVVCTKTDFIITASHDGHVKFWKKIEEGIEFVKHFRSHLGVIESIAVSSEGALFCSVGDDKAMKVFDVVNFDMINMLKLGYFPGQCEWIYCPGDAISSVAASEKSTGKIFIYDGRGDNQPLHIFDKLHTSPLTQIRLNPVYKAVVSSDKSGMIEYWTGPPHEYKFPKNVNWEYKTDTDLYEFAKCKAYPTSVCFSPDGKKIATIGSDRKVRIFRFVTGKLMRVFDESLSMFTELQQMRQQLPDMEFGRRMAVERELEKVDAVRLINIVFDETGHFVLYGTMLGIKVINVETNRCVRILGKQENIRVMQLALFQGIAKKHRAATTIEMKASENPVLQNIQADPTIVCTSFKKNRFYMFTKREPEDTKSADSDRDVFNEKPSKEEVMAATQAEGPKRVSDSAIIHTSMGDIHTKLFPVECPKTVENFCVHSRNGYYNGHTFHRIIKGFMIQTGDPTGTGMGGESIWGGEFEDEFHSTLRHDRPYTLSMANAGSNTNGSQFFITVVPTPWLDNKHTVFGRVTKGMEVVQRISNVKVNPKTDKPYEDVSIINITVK
UniProt P63151: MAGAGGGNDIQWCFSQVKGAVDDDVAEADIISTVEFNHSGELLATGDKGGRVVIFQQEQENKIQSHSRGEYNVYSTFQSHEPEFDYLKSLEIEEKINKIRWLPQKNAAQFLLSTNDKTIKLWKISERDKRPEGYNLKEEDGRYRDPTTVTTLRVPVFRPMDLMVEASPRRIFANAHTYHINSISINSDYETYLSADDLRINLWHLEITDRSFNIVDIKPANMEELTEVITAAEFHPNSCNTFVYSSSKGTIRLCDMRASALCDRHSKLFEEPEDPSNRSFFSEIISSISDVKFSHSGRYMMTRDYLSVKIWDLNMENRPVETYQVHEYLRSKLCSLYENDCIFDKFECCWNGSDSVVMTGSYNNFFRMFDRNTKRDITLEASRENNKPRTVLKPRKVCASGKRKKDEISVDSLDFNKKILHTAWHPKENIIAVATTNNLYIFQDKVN
UniProt Q06830: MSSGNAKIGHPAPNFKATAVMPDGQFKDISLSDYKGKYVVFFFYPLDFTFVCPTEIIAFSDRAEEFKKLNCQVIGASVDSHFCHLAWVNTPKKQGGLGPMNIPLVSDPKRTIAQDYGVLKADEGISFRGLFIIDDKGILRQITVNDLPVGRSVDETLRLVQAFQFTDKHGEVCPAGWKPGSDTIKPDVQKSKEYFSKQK
UniProt O14744, whole entry, looked up: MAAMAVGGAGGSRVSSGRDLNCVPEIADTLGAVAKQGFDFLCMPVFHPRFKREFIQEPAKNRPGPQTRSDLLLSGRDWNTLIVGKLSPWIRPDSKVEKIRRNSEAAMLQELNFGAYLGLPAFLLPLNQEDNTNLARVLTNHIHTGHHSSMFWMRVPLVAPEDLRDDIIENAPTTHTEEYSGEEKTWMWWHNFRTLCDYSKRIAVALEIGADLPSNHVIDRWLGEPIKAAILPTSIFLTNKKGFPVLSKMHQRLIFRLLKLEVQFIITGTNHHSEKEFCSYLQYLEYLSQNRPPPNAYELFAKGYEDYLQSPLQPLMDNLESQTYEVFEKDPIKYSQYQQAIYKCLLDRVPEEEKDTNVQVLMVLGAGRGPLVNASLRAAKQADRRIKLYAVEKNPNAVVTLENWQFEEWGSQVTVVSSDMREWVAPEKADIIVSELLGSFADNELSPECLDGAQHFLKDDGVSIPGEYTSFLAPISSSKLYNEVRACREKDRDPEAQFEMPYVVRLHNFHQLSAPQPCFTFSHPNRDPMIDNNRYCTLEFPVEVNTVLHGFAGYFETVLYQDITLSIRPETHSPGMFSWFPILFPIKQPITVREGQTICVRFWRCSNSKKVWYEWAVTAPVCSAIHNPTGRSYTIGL
UniProt Q15435: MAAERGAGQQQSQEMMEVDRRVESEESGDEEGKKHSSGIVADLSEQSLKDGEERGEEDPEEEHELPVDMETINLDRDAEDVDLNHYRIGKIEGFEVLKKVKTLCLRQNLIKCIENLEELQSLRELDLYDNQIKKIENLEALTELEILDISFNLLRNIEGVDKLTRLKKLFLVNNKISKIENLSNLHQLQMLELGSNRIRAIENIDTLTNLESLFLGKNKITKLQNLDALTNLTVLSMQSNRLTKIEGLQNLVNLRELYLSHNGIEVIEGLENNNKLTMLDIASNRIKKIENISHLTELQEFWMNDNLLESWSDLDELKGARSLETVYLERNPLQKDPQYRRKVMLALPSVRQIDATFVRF
UniProt P78395, whole entry, looked up: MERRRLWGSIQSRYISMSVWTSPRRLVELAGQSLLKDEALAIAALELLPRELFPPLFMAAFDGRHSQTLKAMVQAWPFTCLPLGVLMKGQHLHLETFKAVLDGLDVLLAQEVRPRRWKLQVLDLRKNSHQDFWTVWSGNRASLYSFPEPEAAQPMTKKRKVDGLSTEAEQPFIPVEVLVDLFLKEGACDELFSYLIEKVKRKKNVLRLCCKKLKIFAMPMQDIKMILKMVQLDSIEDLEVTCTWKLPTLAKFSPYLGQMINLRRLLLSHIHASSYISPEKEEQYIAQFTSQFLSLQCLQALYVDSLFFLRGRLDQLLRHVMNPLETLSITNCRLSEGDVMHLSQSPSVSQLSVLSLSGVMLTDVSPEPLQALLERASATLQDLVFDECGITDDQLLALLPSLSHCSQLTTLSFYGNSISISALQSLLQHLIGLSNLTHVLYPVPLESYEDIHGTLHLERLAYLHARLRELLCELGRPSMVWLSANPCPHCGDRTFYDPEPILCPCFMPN
UniProt Q92733: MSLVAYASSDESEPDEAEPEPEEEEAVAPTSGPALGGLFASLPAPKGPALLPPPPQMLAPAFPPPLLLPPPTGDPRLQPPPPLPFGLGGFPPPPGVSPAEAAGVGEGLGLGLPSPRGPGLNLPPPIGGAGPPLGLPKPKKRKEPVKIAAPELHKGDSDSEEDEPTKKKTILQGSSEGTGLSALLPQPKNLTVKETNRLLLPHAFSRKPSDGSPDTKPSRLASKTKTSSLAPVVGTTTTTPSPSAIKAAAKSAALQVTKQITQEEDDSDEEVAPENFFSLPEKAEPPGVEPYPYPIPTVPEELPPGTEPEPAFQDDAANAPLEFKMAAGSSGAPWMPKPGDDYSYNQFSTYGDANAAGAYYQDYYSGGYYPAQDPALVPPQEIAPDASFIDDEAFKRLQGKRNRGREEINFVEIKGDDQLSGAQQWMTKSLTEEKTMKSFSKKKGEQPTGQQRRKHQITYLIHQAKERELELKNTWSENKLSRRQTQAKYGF
UniProt P30154, whole entry, looked up: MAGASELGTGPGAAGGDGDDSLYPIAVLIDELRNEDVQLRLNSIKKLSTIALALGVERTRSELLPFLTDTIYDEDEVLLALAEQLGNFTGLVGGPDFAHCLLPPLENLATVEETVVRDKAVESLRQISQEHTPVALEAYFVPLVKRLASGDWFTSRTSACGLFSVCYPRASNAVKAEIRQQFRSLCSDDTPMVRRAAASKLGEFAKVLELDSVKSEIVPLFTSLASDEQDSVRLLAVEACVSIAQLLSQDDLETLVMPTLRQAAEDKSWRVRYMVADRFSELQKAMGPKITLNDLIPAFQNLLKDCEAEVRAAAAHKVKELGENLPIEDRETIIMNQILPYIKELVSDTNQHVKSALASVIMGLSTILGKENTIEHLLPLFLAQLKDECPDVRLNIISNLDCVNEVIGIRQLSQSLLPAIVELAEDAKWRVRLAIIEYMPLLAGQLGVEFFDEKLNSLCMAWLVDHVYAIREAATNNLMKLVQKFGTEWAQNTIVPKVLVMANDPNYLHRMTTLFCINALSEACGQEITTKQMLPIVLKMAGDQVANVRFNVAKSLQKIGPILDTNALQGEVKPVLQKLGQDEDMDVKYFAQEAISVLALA
UniProt Q4J6C6, whole entry, looked up: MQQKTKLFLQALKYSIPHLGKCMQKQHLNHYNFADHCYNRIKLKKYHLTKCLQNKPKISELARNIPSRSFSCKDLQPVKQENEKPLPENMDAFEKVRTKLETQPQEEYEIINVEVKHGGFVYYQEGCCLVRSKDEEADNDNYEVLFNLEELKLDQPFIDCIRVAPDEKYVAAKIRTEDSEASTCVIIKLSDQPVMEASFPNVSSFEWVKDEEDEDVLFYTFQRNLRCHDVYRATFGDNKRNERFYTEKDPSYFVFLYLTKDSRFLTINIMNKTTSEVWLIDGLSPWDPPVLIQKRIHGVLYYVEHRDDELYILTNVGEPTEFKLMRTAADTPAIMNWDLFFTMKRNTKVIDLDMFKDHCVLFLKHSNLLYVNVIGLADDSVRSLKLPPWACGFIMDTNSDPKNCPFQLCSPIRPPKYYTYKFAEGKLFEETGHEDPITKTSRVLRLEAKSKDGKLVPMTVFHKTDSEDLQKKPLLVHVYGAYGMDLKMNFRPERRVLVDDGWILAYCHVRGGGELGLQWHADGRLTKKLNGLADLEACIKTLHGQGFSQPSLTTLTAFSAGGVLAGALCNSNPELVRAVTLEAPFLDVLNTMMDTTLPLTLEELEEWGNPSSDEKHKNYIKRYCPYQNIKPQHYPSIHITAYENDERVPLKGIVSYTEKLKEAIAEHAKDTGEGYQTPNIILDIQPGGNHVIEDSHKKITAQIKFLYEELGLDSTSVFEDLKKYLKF
UniProt P48147: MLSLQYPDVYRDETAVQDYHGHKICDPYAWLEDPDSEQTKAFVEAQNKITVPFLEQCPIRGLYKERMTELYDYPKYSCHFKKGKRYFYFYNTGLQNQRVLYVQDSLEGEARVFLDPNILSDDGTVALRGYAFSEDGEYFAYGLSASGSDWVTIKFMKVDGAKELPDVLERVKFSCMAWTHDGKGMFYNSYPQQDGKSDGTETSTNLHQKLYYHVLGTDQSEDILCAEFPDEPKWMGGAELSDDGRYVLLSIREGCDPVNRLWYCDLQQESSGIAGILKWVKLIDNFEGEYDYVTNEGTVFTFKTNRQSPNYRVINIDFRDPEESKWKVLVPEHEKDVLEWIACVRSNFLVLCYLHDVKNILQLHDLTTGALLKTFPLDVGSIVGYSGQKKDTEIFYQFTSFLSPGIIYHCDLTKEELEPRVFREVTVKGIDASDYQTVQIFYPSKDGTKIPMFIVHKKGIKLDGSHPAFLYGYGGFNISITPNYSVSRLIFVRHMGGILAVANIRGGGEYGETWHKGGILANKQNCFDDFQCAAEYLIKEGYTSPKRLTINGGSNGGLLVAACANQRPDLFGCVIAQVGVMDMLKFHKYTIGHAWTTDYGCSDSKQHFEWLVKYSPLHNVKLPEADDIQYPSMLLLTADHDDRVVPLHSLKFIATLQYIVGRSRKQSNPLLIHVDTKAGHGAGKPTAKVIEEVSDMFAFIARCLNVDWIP
UniProt Q96M27: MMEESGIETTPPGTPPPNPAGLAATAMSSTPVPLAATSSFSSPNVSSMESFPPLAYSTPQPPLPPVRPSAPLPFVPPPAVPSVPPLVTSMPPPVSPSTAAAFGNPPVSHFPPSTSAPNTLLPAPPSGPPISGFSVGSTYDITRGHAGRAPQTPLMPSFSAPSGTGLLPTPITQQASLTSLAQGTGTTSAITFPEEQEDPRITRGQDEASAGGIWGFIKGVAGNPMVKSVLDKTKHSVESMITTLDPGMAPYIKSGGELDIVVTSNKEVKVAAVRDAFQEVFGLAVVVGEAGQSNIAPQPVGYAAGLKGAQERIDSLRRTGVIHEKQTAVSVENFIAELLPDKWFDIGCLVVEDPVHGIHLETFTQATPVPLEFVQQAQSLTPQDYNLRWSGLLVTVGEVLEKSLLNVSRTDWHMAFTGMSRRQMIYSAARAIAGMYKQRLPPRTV
UniProt Q9UMS4: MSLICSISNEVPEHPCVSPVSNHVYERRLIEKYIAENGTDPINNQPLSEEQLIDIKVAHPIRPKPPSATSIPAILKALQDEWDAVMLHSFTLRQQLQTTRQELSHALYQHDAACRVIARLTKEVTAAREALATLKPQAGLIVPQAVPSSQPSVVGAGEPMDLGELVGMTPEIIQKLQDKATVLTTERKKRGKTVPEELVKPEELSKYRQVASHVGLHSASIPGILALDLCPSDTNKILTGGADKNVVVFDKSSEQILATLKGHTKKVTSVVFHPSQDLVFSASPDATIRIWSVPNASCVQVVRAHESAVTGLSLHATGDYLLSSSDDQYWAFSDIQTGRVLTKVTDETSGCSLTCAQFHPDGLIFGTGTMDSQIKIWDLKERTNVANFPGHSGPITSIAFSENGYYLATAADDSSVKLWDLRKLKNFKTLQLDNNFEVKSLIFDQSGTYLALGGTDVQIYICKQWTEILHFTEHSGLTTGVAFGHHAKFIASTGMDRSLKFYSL

Tests used:
Assay in all cases: log2 fold change, soluble protein after heating vs DMSO (PISA); higher = thermal stabilisation; K562 cells, 10 uM, 30 min; active = over 0.2 and 3.5 SD of the protein, either way, in both replicates (recomputed)
[1] = compound: CS(=O)(=O)c1ccc(-c2cnc(N)c(C(=O)Nc3ccccc3)n2)cc1
How it was run: (§1)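 Thermal stability values are relative to control samples and come from duplicates. They are expressed as log2 fold changes. For measurement, K562 cells (2×10^6 cells/mL) received 10 μM compound for 30 min, and aliquots were heated for 3 min over 48°C-58°C, pooled, and extracted at 4°C in PBS with 0.5% NP-40. Soluble protein, the supernatant after 21,000xg for 90 min, was quantified by TMTpro 16plex LC-MS/MS with equalised channel sums.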

[2] = compound: C[C@@H](Oc1cc(-c2cnn(C3CCNCC3)c2)cnc1N)c1c(Cl)ccc(F)c1Cl [crizotinib]
How it was run: as §1

[3] = compound: C[C@@H]1COCCN1C2=NC(=NC(=C2)C3(CC3)S(=O)(=O)C)C4=C5C=CNC5=CC=C4
How it was run: as §1

[4] = compound: C[C@H](C1=CC=C(C=C1)C(=O)NC2=C3C=CNC3=NC=C2)N
How it was run: as §1

[5] = compound: C[C@H](Nc1ncnc2nc[nH]c12)c1cc2cccc(Cl)c2c(=O)n1-c1ccccc1 [duvelisib]
How it was run: as §1

[6] = compound: Cc1cc(Nc2cc(CN3CCOCC3)c3nc(C)c(Cc4ccc(Cl)cc4F)n3n2)n[nH]1 [gandotinib]
How it was run: as §1

[7] = compound: Cc1cc(Nc2cc(N3CCN(C)CC3)nc(Sc3ccc(NC(=O)C4CC4)cc3)n2)n[nH]1 [tozasertib]
How it was run: as §1

[8] = compound: Cc1cc(SCc2sc(-c3ccc(C(F)(F)F)cc3)nc2C)ccc1OCC(=O)O
How it was run: as §1

[9] = compound: Cc1ccc(-n2nc(C(C)(C)C)cc2NC(=O)Nc2ccc(OCCN3CCOCC3)c3ccccc23)cc1 [doramapimod]
How it was run: as §1

[10] = compound: Cc1ccc(C(=O)N(CCCN)[C@@H](c2nc3cc(Cl)ccc3c(=O)n2Cc2ccccc2)C(C)C)cc1 [ispinesib]
How it was run: as §1

[11] = compound: Cc1ccc(NC(=O)c2ccc(CN3CC[C@H](N(C)C)C3)c(C(F)(F)F)c2)cc1Nc1nccc(-c2cncnc2)n1 [bafetinib]
How it was run: as §1

[12] = compound: Cc1cccc(CC(=O)N2CCc3c2ccc(-c2cn(C)c4ncnc(N)c24)c3F)n1
How it was run: as §1

[13] = compound: Cc1cn(-c2cc(NC(=O)c3ccc(C)c(Nc4nccc(-c5cccnc5)n4)c3)cc(C(F)(F)F)c2)cn1 [nilotinib]
How it was run: as §1

[14] = compound: Cc1nc(Nc2n[nH]c3c2CN(C(=O)N[C@H](CN(C)C)c2ccccc2)C3(C)C)c2sccc2n1
How it was run: as §1

[15] = compound: Cc1nc(Nc2ncc(C(=O)Nc3c(C)cccc3Cl)s2)cc(N2CCN(CCO)CC2)n1 [dasatinib]
How it was run: as §1

[16] = compound: Cc1ncc(-c2ccnc(Nc3ccc(S(C)(=O)=O)cc3)n2)n1C(C)C
How it was run: as §1

[17] = compound: Cn1cc(-c2ccc3c(c2)CCN3C(=O)Cc2cccc(C(F)(F)F)c2)c2c(N)ncnc21
How it was run: as §1

[18] = compound: Cn1cc(-c2ccc3nnc(C(F)(F)c4ccc5ncccc5c4)n3n2)cn1
How it was run: as §1

[19] = compound: Cn1cncc1[C@@](N)(c1ccc(Cl)cc1)c1ccc2c(c1)c(-c1cccc(Cl)c1)cc(=O)n2C [tipifarnib]
How it was run: as §1

[20] = compound: FC(F)(F)c1ccc(/C=C/c2nc(COc3ccc(CCCCn4ccnn4)cc3)co2)cc1 [mubritinib]
How it was run: as §1

Measured: log2 fold change

PPM1F (UniProt P49593)
inactive: [1] 0.032 | [2] -0.104 | [3] 0.069 | [4] -0.055 | [5] 0.001 | [6] -0.065 | [7] -0.025 | [8] 0.019 | [9] -0.017 | [10] -0.02 | [11] 0.027 | [12] 0.038 | [13] 0.016 | [14] 0.038 | [15] -0.093 | [16] 0.051 | [17] 0.036 | [18] 0.041 | [19] -0.02 | [20] 0.137

PRDX6 (UniProt P30041)
inactive: [1] 0.034 | [2] 0.022 | [3] 0.039 | [4] -0.029 | [5] 0.024 | [6] -0.021 | [7] 0.001 | [8] -0.003 | [9] -0.006 | [10] 0.026 | [11] -0.043 | [12] -0.023 | [13] -0.014 | [14] -0.014 | [15] -0.014 | [16] -0.015 | [17] 0.105 | [18] 0.008 | [19] -0.022 | [20] 0.019

PPWD1 (UniProt Q96BP3)
inactive: [1] 0.013 | [2] 0.058 | [3] 0.063 | [4] -0.061 | [5] 0.061 | [6] 0.001 | [7] -0.016 | [8] 0.045 | [9] -0.072 | [10] 0.019 | [11] -0.021 | [12] 0.01 | [13] -0.041 | [14] -0.01 | [15] -0.115 | [16] 0.07 | [17] 0.057 | [18] 0.002 | [19] -0.004 | [20] 0.05

PPP2R2A isoform 2 (UniProt P63151)
inactive: [1] 0.046 | [2] 0.002 | [3] 0.002 | [4] -0.058 | [5] 0.036 | [6] -0.042 | [7] -0.03 | [8] -0.035 | [9] -0.025 | [10] 0.016 | [11] -0.026 | [12] 0.012 | [13] -0.003 | [14] 0.001 | [15] 0.001 | [16] -0.012 | [17] 0.027 | [18] 0.029 | [19] 0.001 | [20] 0.007

PRDX1 (UniProt Q06830)
inactive: [1] 0.047 | [2] -0.02 | [3] 0.05 | [4] -0.043 | [5] 0.005 | [6] -0.014 | [7] -0.035 | [8] -0.013 | [9] -0.012 | [10] 0.042 | [11] -0.012 | [12] 0.008 | [13] -0.005 | [14] -0.004 | [15] 0.004 | [16] -0.012 | [17] 0.052 | [18] 0.019 | [19] 0.04 | [20] 0.044

PPP2R2D (UniProt Q66LE6)
inactive: [1] -0.055 | [2] -0.056 | [3] 0.069 | [4] 0.012 | [5] 0.072 | [6] 0.076 | [7] -0.063 | [8] -0.018 | [9] 0.053 | [10] 0.065 | [11] -0.035 | [12] -0.115 | [13] 0.039 | [14] -0.084 | [15] -0.005 | [16] -0.084 | [17] -0.025 | [18] -0.023 | [19] 0.017 | [20] 0.049

PRMT5 (UniProt O14744)
inactive: [1] -0.035 | [2] -0.004 | [3] 0.057 | [4] -0.012 | [5] 0.167 | [6] 0.045 | [7] -0.02 | [8] -0.024 | [9] -0.04 | [10] 0.039 | [11] 0.01 | [12] -0.001 | [13] -0.015 | [14] 0.047 | [15] 0.035 | [16] -0.014 | [17] 0.021 | [18] 0.008 | [19] -0.006 | [20] 0.033

PPP1R7 (UniProt Q15435)
inactive: [1] 0.078 | [2] 0.041 | [3] -0.006 | [4] -0.043 | [5] 0.016 | [6] 0.017 | [7] 0.018 | [8] 0.01 | [9] -0.024 | [10] 0.008 | [11] -0.009 | [12] 0.014 | [13] -0.04 | [14] -0.01 | [15] -0.044 | [16] 0.045 | [17] 0.014 | [18] 0.066 | [19] -0.076 | [20] 0.081

PRAME (UniProt P78395)
inactive: [1] -0.159 | [2] -0.087 | [3] -0.114 | [4] 0.125 | [5] -0.092 | [6] -0.036 | [7] 0.049 | [8] 0.052 | [9] 0.06 | [10] -0.034 | [11] 0.038 | [12] -0.055 | [13] -0.02 | [14] -0.056 | [15] 0.008 | [16] -0.05 | [17] -0.056 | [18] -0.025 | [19] -0.032 | [20] -0.062

PRR12 (UniProt Q9ULL5)
inactive: [1] 0.242

PRCC (UniProt Q92733)
inactive: [1] 0.019 | [2] 0.011 | [3] -0.028 | [4] 0.038 | [5] 0.032 | [6] 0.04 | [7] -0.015 | [8] -0.059 | [9] 0.003 | [10] 0 | [11] -0.06 | [12] -0.017 | [13] 0.049 | [14] -0.039 | [15] 0.02 | [16] 0.019 | [17] -0.037 | [18] -0.029 | [19] 0.077 | [20] 0.022

PPP2R1B isoform 2 (UniProt P30154)
inactive: [1] 0.005 | [2] -0.096 | [3] 0.04 | [4] 0.024 | [5] 0.005 | [6] 0.059 | [7] 0.015 | [8] 0.028 | [9] 0.076 | [10] -0.008 | [11] 0.008 | [12] -0.016 | [13] 0.026 | [14] -0.06 | [15] -0.04 | [16] -0.019 | [17] 0.039 | [18] -0.027 | [19] 0.046 | [20] 0.064

PREPL (UniProt Q4J6C6)
inactive: [1] 0.059 | [2] -0.031 | [3] 0.059 | [4] -0.041 | [5] 0.029 | [6] -0.078 | [7] -0.047 | [8] 0.055 | [9] 0.023 | [10] 0.002 | [11] -0.069 | [12] 0.024 | [13] 0.005 | [14] -0.006 | [15] -0.07 | [16] -0.014 | [17] 0.027 | [18] -0.001 | [19] -0.024 | [20] 0.059

PREP (UniProt P48147)
inactive: [1] 0 | [2] -0.139 | [3] -0.07 | [4] 0.083 | [5] 0.024 | [6] -0.051 | [7] 0.258 | [8] 0.091 | [9] 0.064 | [10] -0.096 | [11] 0.006 | [12] 0.02 | [13] -0.01 | [14] -0.063 | [15] -0.124 | [16] 0.029 | [17] -0.067 | [18] -0.011 | [19] -0.136 | [20] -0.024

PRRC1 (UniProt Q96M27)
inactive: [1] 0.01 | [2] 0.07 | [3] 0.024 | [4] -0.034 | [5] 0.011 | [6] 0.032 | [7] -0.031 | [8] -0.081 | [9] 0 | [10] -0.015 | [11] -0.08 | [12] -0.039 | [13] -0.002 | [14] -0.021 | [15] 0.038 | [16] -0.026 | [17] 0 | [18] 0.013 | [19] 0.013 | [20] 0.057

PRRC2B (UniProt Q5JSZ5)
inactive: [1] -0.024 | [2] -0.013 | [3] -0.057 | [4] 0.074 | [5] 0.059 | [6] -0.024 | [7] -0.05 | [8] -0.049 | [9] 0.017 | [10] -0.053 | [11] -0.014 | [12] -0.063 | [13] -0.016 | [14] -0.034 | [15] -0.005 | [16] 0.049 | [17] -0.041 | [18] -0.01 | [19] 0.019 | [20] -0.052

Reprinted at random: 2 records from the list.
PRCC (UniProt Q92733)
inactive: [1] 0.019 | [2] 0.011 | [3] -0.028 | [4] 0.038 | [5] 0.032 | [6] 0.04 | [7] -0.015 | [8] -0.059 | [9] 0.003 | [10] 0 | [11] -0.06 | [12] -0.017 | [13] 0.049 | [14] -0.039 | [15] 0.02 | [16] 0.019 | [17] -0.037 | [18] -0.029 | [19] 0.077 | [20] 0.022

PPM1F (UniProt P49593)
inactive: [1] 0.032 | [2] -0.104 | [3] 0.069 | [4] -0.055 | [5] 0.001 | [6] -0.065 | [7] -0.025 | [8] 0.019 | [9] -0.017 | [10] -0.02 | [11] 0.027 | [12] 0.038 | [13] 0.016 | [14] 0.038 | [15] -0.093 | [16] 0.051 | [17] 0.036 | [18] 0.041 | [19] -0.02 | [20] 0.137

(continued)

PRPF19 (UniProt Q9UMS4)
inactive: [1] -0.028 | [2] 0.165 | [3] -0.004 | [4] -0.015 | [5] 0.017 | [6] -0.002 | [7] -0.062 | [8] -0.041 | [9] -0.014 | [10] 0.076 | [11] -0.062 | [12] -0.049 | [13] -0.004 | [14] 0.102 | [15] 0.086 | [16] 0.082 | [17] -0.005 | [18] -0.001 | [19] 0.008 | [20] 0.019
